PubChem BioAssay AID1159578 | Peter MacCallum Cancer Centre – 2015

- Aim: 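siRNA pools altering how lymphatic endothelial cells close a scratch wound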 (primary screen)
- System: human lymphatic endothelial cells
- Reagents: siRNA pool against human genes, 40 nM
- Duration: 48 h after transfection
- Detection: 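Cells stained with dye and imaged after a scratch; covered wound area and nuclei counted, duplicates averaged, migration set against mock wells and turned into a robust z-score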
- Scale: migration robust z-score: higher = faster migration into the scratch; nuclei per well: higher = more cells in the well
- Call rule: 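Migration changed when robust z exceeds 2 or falls below -2 and mean nuclei number is at least 3300; otherwise not called changed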
- Meaning of the calls: active = migration changed; inactive = no migration change, or too few cells
In all, the deposit lists about 18,000 reagents; shown is a random part of them. About 1,030 of them (5.7%) were called active. 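Inactive calls also include pools with fewer than 3300 nuclei, whose migration was not assessed.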 Raw values are not corrected between plates. Unmarked entries are inactive. Further read-outs or replicates are left out here.

no.	gene	migration robust z-score	nuclei per well, duplicate mean
1	PPCDC	1.84	5662
2	LETM1	0.62	5368
3	DOCK5	-0.73	5762
4	CSHL1	-0.04	5748
5	PARP15	-1.19	6012
6	NKAIN4	-0.34	5418
7	IL4	-0.18	5856
8	KARS1	-0.57	5895
9	RHCE	0.73	6123
10	ATXN7L2	0.46	6132
11	OR5B17	0.48	6058
12	C17orf75	-0.37	5587
13	LINC00174	-0.2	5184
14	LRIG2	-0.84	4280
15	HDDC2	0.52	4685
16	GTF2A2	0.34	5784
17	OR2F1	-2.78	2798
18	ARPP21	0.38	5940
19	DIRAS1	0.05	8044
20	IFT38	1.1	5365
21	ZNF446	-0.12	4812
22	ANXA13	0.37	7054
23	DNAJC6	-2.08 (active)	4656
24	OR9G1	0.14	6402
25	PRRG2	-0.28	5886
26	ART4	0.34	6044
27	SERPINA7	0.55	6012
28	SARAF	-0.9	4606
29	TYMP	-1.82	5832
30	CSGALNACT1	-4.8 (active)	3537
31	CELA1	-1.3	5539
32	UQCRC1	-0.16	6437
33	RPL38	-0.16	3967
34	FEM1A	-0.18	5462
35	POGZ	0.65	5762
36	PLAAT3	0.26	5482
37	ERH	-0.86	5470
38	IZUMO4	0.67	5151
39	PARN	-0.32	5824
40	PIK3CA	0	5902
41	B4GALT5	0.05	4700
42	RIC3	0.71	5620
43	TMEM138	2.11 (active)	6216
44	SSX6P	1.81	6589
45	DEFB4A	-0.42	5524
46	KATNA1	0.42	5705
47	DPRX	0.56	6152
48	C12orf43	-1.34	4986
49	OR7G2	0.8	5430
50	SCFD1	-0.92	6356
51	SNAI1	-2.34 (active)	3792
52	WNT10A	-1.03	5368
53	BAG1	1.4	5180
54	VSIR	1.16	4939
55	PIGA	1.58	6890
56	RNF166	-0.75	3365
57	BIRC2	1.09	4901
